One assay concerns the target T1, AtPAPS4 (Arabidopsis) (UniProt Q8VYW1).
T1 sequence: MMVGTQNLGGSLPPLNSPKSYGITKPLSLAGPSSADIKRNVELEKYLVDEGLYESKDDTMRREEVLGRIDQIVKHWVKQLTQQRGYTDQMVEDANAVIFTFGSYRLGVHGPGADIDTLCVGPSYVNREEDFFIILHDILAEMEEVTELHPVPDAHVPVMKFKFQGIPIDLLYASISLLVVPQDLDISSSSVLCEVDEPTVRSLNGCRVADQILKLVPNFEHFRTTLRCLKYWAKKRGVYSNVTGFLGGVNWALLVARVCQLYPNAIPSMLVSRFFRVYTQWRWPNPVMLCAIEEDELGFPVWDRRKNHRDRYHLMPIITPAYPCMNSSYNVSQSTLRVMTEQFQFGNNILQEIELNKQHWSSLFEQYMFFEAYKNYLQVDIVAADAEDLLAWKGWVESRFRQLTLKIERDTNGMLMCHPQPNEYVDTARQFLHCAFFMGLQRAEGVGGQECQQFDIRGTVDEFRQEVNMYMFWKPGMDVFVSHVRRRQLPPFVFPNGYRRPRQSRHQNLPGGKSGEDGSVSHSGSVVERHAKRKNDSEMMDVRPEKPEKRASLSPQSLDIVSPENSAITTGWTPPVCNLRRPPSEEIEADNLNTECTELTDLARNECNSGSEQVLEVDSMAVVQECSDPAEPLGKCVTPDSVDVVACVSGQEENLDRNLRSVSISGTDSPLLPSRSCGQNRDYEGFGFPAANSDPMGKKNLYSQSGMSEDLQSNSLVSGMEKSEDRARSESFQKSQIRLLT
Description: two-hybrid; AD (pGAD-C(1)) and BD (pGBD-C(1)) fusions in yeast PJ69-4; dual transformants tested on media lacking leucine, tryptophan and adenine; positive if all tested colonies (4 to 10) grew; both combinations of clones tested whenever possible.

The next assay concerns the target T2, AtPABN2 (Arabidopsis) (UniProt Q93VI4).
T2 sequence: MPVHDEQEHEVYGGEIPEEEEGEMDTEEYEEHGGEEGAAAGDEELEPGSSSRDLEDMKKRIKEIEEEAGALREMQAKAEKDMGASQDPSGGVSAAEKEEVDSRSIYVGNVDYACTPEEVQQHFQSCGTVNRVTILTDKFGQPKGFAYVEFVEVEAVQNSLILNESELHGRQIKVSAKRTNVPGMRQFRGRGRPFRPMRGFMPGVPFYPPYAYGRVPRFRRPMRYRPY
Described as above.

The target of a further assay is T3, AtCPSF100 (Arabidopsis) (UniProt Q9LKF9).
T3 sequence: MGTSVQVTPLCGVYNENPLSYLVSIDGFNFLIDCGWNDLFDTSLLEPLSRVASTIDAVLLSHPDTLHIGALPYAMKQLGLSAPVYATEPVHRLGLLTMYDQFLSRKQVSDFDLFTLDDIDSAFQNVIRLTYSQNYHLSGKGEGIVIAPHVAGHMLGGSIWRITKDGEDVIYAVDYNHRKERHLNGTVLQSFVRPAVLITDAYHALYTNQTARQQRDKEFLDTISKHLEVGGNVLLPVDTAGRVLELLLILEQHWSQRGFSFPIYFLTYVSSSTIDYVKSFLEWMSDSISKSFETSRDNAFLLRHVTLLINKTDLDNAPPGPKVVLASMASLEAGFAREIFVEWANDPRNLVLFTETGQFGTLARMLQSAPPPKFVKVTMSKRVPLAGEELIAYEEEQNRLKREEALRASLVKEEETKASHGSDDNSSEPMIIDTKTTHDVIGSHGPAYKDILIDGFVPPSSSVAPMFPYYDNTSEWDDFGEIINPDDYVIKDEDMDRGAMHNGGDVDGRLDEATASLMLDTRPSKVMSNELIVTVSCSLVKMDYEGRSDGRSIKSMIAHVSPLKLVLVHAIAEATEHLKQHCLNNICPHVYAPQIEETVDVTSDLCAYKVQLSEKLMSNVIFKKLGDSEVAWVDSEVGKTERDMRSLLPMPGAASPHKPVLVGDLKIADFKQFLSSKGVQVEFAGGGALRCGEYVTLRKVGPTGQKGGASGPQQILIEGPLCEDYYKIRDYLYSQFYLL
Described as above.

Assay [1] deals with T4, PCFS1 (in vitro pull-down) (Arabidopsis) (UniProt Q9C710).
T4 sequence: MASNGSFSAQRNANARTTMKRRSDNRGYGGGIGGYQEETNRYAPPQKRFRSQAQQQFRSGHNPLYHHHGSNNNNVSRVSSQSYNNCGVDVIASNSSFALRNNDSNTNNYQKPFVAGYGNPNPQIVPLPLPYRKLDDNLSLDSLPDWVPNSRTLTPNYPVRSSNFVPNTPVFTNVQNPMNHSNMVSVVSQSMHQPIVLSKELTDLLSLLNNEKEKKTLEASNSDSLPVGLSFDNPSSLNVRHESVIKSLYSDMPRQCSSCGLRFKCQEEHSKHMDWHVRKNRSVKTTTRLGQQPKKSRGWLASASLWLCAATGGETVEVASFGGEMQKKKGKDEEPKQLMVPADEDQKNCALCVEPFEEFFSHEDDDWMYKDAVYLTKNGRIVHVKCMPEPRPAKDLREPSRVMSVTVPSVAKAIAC
Nature of the assay: pull-down; in vitro pull-down; unpublished data of D. Xing and QQ. Li (manuscript in prep).

The target of assay [2] is T5, PCFS5 (in vitro pull-down) (Arabidopsis) (UniProt Q9FIX8).
T5 sequence: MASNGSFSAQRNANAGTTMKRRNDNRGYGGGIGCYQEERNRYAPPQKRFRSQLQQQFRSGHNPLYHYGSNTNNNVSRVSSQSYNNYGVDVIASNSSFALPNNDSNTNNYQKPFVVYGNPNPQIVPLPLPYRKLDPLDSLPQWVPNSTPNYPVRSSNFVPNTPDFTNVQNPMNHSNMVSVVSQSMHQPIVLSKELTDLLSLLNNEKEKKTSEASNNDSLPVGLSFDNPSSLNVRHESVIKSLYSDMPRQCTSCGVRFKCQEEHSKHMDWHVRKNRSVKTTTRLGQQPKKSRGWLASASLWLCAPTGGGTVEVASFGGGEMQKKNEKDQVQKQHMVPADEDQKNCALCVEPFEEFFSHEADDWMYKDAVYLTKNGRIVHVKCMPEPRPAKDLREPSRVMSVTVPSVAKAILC
The assay is described as above.

These are yes or no findings as the source states them, for the method shown. For some assays here: Binding seen in cells or lysates may run through a third protein. Some results given as binding are weak or reduced against the parent protein; the word gives no strength.

B1: AtFIPS5 (protein, UniProt F4KDH9 1-1196)
chain: MEEDDEFGDLYSDVLQPFQPPVVLPPPPPLPHRSIDLNLRSQDQDVSEPNSAPISRVSDNDAVKLSTQDATRQAIVDGGGDDKDMSFDIEEPDADSTPTIPGLFVTGALPGLATDRGVSQVTTRIEQQVGGGGDGGYGGQGEGDDWDSDSEDDLQIVLNDSSRNVMIGGADRRSRMGDNEDDDDEDDEDPLVIVADTDPNQPMEEQMWGEDGLQGIEGDGKDGGEAGKGSGPGGATGPPKAGYSSHGYHPFHSQFKYVRPGAAPIPGGAASVGGPSSGQVRPPANLGPMAGRGRGDWRPLGMRNASAAQKGFHQPWGSNTAGRGLDFTLPSHKTIFEVDIDSFEEKPWRYPGVEMTDYFNFGLNEESWKDYCKQLDQHRIQTTMQSRIRVYESGRTDQGYDPDLPPELAAATGAQGVPVDSSNLVKPDSVQGDSAKVPANVRPTLPPGRPIPVETGSGERLPSIDTRAPRMRDLDAIIEIVCQDSHEDEPSGENGTDQADSSLPGENVPVETSYVNNKRPDTESAEHSPAQDEPHKNLLKKQDDEISRSTDSGQSFRSSSPVGDRGTRSSSVDREDVGGEAGKDAEMGEELKMSFTSPQSAVQEDDGGESKTERSSESSKARSGSHRDFQQEEDVIQDKHSSRPANNRKQYDNNAPHQSRKNQDRGKEMERTRAASKGGRENSNPHMELDSTYIYSIASREDFDKRKERDVDGAVWRRKEDDPYSRRGGDEGSRKRDREDDPGFRQRGKMRENEIRSKDDQVPSRKHMDDAGMRNIYEPDDHINKRRKDEEYLRRSRPEKNEISYGQRESMSRVKRERDDRLEHQKRDVQHKIRDDFDDHGSLRQRDDIYMQRDGNERLRERDVLDKLKLPHEDGISARGRERQVAVRGHRGSEDRSSRMKDEYKASDKEHVTKDTLRHAKQTKRRDYPGEESSSHHRGHEDFSARTDNIVNNEKKPRQERTGAKIDKFIDTLDGQRLQDRKHKDSRRKIKEQREGTESLSKQGEQNGSSVVTGSKGTNDARNCRSEIPHQPNTAKRHKENASSGDEIHDSKRGRTKLERWASHKEREDAVSAKSSSISSKLEEKENNTNGRLSEPVHGSIGKSRDVTEEKIGHDLADTKDGSEKGPGDRHLDTVEKLKKRSERFKLPMPTEKDTTGVKKMESETLPSAKIEGPVDSEGEYVWDERSCVRIGREYA
On to B1, for which the binding entry with AtPAPS4 (Arabidopsis) and in the assay with AtPABN2 (Arabidopsis) was “binds” in each case.

B2: AtCPSF160 (protein, UniProt Q9FGR0 1-1442)
chain: MSFAAYKMMHWPTGVENCASGYITHSLSDSTLQIPIVSVHDDIEAEWPNPKRGIGPLPNVVITAANILEVYIVRAQEEGNTQELRNPKLAKRGGVMDGVYGVSLELVCHYRLHGNVESIAVLPMGGGNSSKGRDSIILTFRDAKISVLEFDDSIHSLRMTSMHCFEGPDWLHLKRGRESFPRGPLVKVDPQGRCGGVLVYGLQMIILKTSQVGSGLVGDDDAFSSGGTVSARVESSYIINLRDLEMKHVKDFVFLHGYIEPVIVILQEEEHTWAGRVSWKHHTCVLSALSINSTLKQHPVIWSAINLPHDAYKLLAVPSPIGGVLVLCANTIHYHSQSASCALALNNYASSADSSQELPASNFSVELDAAHGTWISNDVALLSTKSGELLLLTLIYDGRAVQRLDLSKSKASVLASDITSVGNSLFFLGSRLGDSLLVQFSCRSGPAASLPGLRDEDEDIEGEGHQAKRLRMTSDTFQDTIGNEELSLFGSTPNNSDSAQKSFSFAVRDSLVNVGPVKDFAYGLRINADANATGVSKQSNYELVCCSGHGKNGALCVLRQSIRPEMITEVELPGCKGIWTVYHKSSRGHNADSSKMAADEDEYHAYLIISLEARTMVLETADLLTEVTESVDYYVQGRTIAAGNLFGRRRVIQVFEHGARILDGSFMNQELSFGASNSESNSGSESSTVSSVSIADPYVLLRMTDDSIRLLVGDPSTCTVSISSPSVLEGSKRKISACTLYHDKGPEPWLRKASTDAWLSSGVGEAVDSVDGGPQDQGDIYCVVCYESGALEIFDVPSFNCVFSVDKFASGRRHLSDMPIHELEYELNKNSEDNTSSKEIKNTRVVELAMQRWSGHHTRPFLFAVLADGTILCYHAYLFDGVDSTKAENSLSSENPAALNSSGSSKLRNLKFLRIPLDTSTREGTSDGVASQRITMFKNISGHQGFFLSGSRPGWCMLFRERLRFHSQLCDGSIAAFTVLHNVNCNHGFIYVTAQGVLKICQLPSASIYDNYWPVQKIPLKATPHQVTYYAEKNLYPLIVSYPVSKPLNQVLSSLVDQEAGQQLDNHNMSSDDLQRTYTVEEFEIQILEPERSGGPWETKAKIPMQTSEHALTVRVVTLLNASTGENETLLAVGTAYVQGEDVAARGRVLLFSFGKNGDNSQNVVTEVYSRELKGAISAVASIQGHLLISSGPKIILHKWNGTELNGVAFFDAPPLYVVSMNVVKSFILLGDVHKSIYFLSWKEQGSQLSLLAKDFESLDCFATEFLIDGSTLSLAVSDEQKNIQVFYYAPKMIESWKGLKLLSRAEFHVGAHVSKFLRLQMVSSGADKINRFALLFGTLDGSFGCIAPLDEVTFRRLQSLQKKLVDAVPHVAGLNPLAFRQFRSSGKARRSGPDSIVDCELLCHYEMLPLEEQLELAHQIGTTRYSILKDLVDLSVGTSFL
On to B2, for which, in the assay with AtCPSF100 (Arabidopsis), the binding entry was “binds”.

B3: CLPS3 (in vitro pull-down) (protein, UniProt Q9SR06 1-444)
chain: MAYGGPSMNPPALSGAVPGSANLKQVKLERESELRIEVSEEPLRLRVVNGTAEIFGSELPPEIWRTFPPRMKFAVFTWYGATIEMDGVTETDYTADETPMVSYINVHAILDARRRFAKASTSNDPESSQGPRVIVVGPTDSGKSTLTKMLLSWAAKQGWRPTFVDLDVGQGSITIPGSIAAAPIEMPLDPVEGFPLDMALVYYYGHASPNMNVELYKALVKELAQVLEKQFVGNPESRAAGMVINTMGWIEGIGYELLLHAIDTFNASVVLVLGQEKLFSRLKDVLRSKSNVDVVKLHKSGGVVARVKEVRKRSRNFKIQEYFYGLSKELSPYANTSSFSDLQVFRIGGGPQAPKSALPAGSTSVSNPLRVTPVNIDDRDLLHSVLAVSYAEEPDQIISSNVSGFVYVTEVNVQKKKITYLAPSPGTLPSKLLVAGSLAWLESV
As to B3, the binding result in assay [1] and in assay [2] was “binds” each time.

The values above are taken from publication PMC2391170.
